{"source": "patent US20240238232A1", "about": "“COMPOSITIONS AND METHODS FOR THE REDUCTION OR TREATMENT OF INSULIN RESISTANCE AND METABOLIC CONDITIONS” (AXCELLA HEALTH INC., priority 2018, published 2024)", "key": {"FATZO mouse model [1]": {"tested_on": "FATZO mouse model", "assay": "Liver fibrosis score and Sirius Red collagen staining in FATZO mice on WDF, Example 5", "format": "in vivo", "settings": "4 weeks, LIVRQNAC+G, LRQNAC, OCA", "from_the_text": "(§1) NASH was induced in 60 male FATZO mice by a western diet (Research Diet #D12079B; fat 40% kcal, protein 17% kcal, carbohydrate 43% kcal) supplemented with 500 fructose in the drinking water (WDF) during a 16 week induction phase. Diets and water were available ad libitum. Littermate control male FATZO mice fed with a control diet (n=6, Purina #5008; fat 17% kcal, protein 27% kcal, carbohydrate 56% kcal) and sterile water were set up for control purpose. Mice were housed in plastic cages with microisolator. Sterilized bedding was replaced once a week. Mice were housed three per cage and maintained on a twelve hour light cycle throughout study duration. Room temperature was monitored daily and maintained at 22-25° C. Body weight was recorded every week during the induction phase. […]\n(§2) […], […]+G, LRQNAC, OCA and Vehicle were administered by oral gavage at a volume of 10 mL/kg throughout the study. Dosages were calculated by daily body weight. […]\nThe livers were evaluated using the NASH liver criteria for scoring. In this mouse study, one cross section of liver for each case was analyzed with the NASH score system. […] The NAS can range from 0 to 8 and is calculated by the sum of scores of steatosis (0-3), lobular inflammation (0-3) and hepatocyte ballooning (0-2) from H&E stained sections. Fibrosis was scored (0-4) from picrosirius red stained slides. […]"}, "FATZO mouse model [2]": {"tested_on": "FATZO mouse model", "assay": "Liver Oil Red O staining area in FATZO mice on WDF, Example 5", "format": "in vivo", "settings": "4 weeks", "from_the_text": "as §1, §2\nAperio Automatic Image Quantitation was employed to quantify positive pixels of immunohistochemical staining, Oil-Red 0, and Sirius Red staining. The Positive Pixel Count algorithm was used to quantify the percentage of a specific stain present in a scanned slide image. A range of color (range of hues and saturation) and three intensity ranges (weak, positive, and strong) were masked and evaluated. […]"}}, "note": "At least one compound was matched to its structure with a doubt left."}
{"smiles": "CC[C@H]1[C@@H](O)[C@@H]2[C@H](CC[C@]3(C)[C@@H]([C@H](C)CCC(=O)O)CC[C@@H]23)[C@@]2(C)CC[C@@H](O)C[C@@H]12", "note": "[OCA, 6α-ethyl-chenodeoxycholic acid]", "values": [{"measurement": "Liver fibrosis score compared to vehicle", "setting": "FATZO mouse model [1]; LIVRQNAC 3000 mg/kg (high dose)", "result": "did not affect"}, {"measurement": "Sirius Red collagen staining (collagen deposition) compared to vehicle", "setting": "FATZO mouse model [1]; LIVRQNAC 3000 mg/kg", "result": "did not affect"}, {"measurement": "Liver Oil Red O staining area compared to vehicle", "setting": "FATZO mouse model [2]", "result": "reduced"}]}
